PubChem BioAssay AID493246 | Drosophila RNAi Screening Center – 2011
Purpose: 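Genome-wide search for dsRNAs that reduce cell number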 (primary screen). Cell system: Drosophila Kc and S2R+ cells. Reagent: long dsRNA against Drosophila genes. Measurement: 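Cell number per well after knock-down, printed as raw plate values; calls were based on per-plate z-scores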. Direction: Kc cell number and S2R+ cell number: higher = more cells remaining. Active means: 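Counted as a hit if cell number falls by a z-score of at least 3 within its plate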.
The screen tested about 21,000 reagents; this is an unselected part of those that have a named target and a result. In the full data, 429 (2%) are marked active. 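Values are raw and not normalised between plates; calls rest on per-plate z-scores that were not deposited.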 A number with no mark means an inactive call. The record does not give: the amount of reagent, the time to read-out.

CG32199 → Kc cell number, rep 1: 1.35e6; Kc cell number, rep 2: 1.52e6; S2R+ cell number, rep 1: 1.34e6; S2R+ cell number, rep 2: 1.50e6
CG18549 → Kc cell number, rep 1: 1.72e6; Kc cell number, rep 2: 1.86e6; S2R+ cell number, rep 1: 1.22e6; S2R+ cell number, rep 2: 1.39e6
Ccp84Af → Kc cell number, rep 1: 1.46e6; Kc cell number, rep 2: 1.67e6; S2R+ cell number, rep 1: 1.42e6; S2R+ cell number, rep 2: 1.55e6
Muc68E → Kc cell number, rep 1: 1.39e6; Kc cell number, rep 2: 1.43e6; S2R+ cell number, rep 1: 1.09e6; S2R+ cell number, rep 2: 1.19e6
Sem1 → Kc cell number, rep 1: 1.37e6; Kc cell number, rep 2: 1.35e6; S2R+ cell number, rep 1: 7.71e5; S2R+ cell number, rep 2: 9.42e5
CG13185 → Kc cell number, rep 1: 1.39e6; Kc cell number, rep 2: 1.53e6; S2R+ cell number, rep 1: 9.43e5; S2R+ cell number, rep 2: 9.66e5
ATP6 (retired record) → Kc cell number, rep 1: 1.55e6; Kc cell number, rep 2: 1.56e6; S2R+ cell number, rep 1: 1.11e6; S2R+ cell number, rep 2: 1.31e6

Records above whose target name starts with C or c:
CG32199 → Kc cell number, rep 1: 1.35e6; Kc cell number, rep 2: 1.52e6; S2R+ cell number, rep 1: 1.34e6; S2R+ cell number, rep 2: 1.50e6
CG18549 → Kc cell number, rep 1: 1.72e6; Kc cell number, rep 2: 1.86e6; S2R+ cell number, rep 1: 1.22e6; S2R+ cell number, rep 2: 1.39e6
Ccp84Af → Kc cell number, rep 1: 1.46e6; Kc cell number, rep 2: 1.67e6; S2R+ cell number, rep 1: 1.42e6; S2R+ cell number, rep 2: 1.55e6
CG13185 → Kc cell number, rep 1: 1.39e6; Kc cell number, rep 2: 1.53e6; S2R+ cell number, rep 1: 9.43e5; S2R+ cell number, rep 2: 9.66e5

Additional results:
MED10 → Kc cell number, rep 1: 1.67e6; Kc cell number, rep 2: 1.73e6; S2R+ cell number, rep 1: 1.21e6; S2R+ cell number, rep 2: 1.37e6
CG14837 → Kc cell number, rep 1: 1.59e6; Kc cell number, rep 2: 1.52e6; S2R+ cell number, rep 1: 1.23e6; S2R+ cell number, rep 2: 1.24e6
Crag → Kc cell number, rep 1: 5.13e5; S2R+ cell number, rep 1: 8.67e5
CG14194 → Kc cell number, rep 1: 1.42e6; Kc cell number, rep 2: 1.44e6; S2R+ cell number, rep 1: 9.83e5; S2R+ cell number, rep 2: 1.02e6
CG14142 → Kc cell number, rep 1: 1.51e6; Kc cell number, rep 2: 1.74e6; S2R+ cell number, rep 1: 1.41e6; S2R+ cell number, rep 2: 1.61e6
